## Assay results

From PubChem BioAssay record AID1745848 (NCATS, 2022).

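A cell-based luciferase reporter for ATXN2 expression, read by light output at 24 h, with a viability multiplex. Compounds were tested as a dilution series from about 0.0037 to 57 µM. The number is the fitted half-maximal inhibitory concentration (AC50); a lower value means a more potent inhibitor. Calls come from curve class and activity score: actives score 40–100, while inconclusive compounds (weak, partial, poorly fitted or single-point curves) score 1–39.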

Values are in µM. Every entry below has the call inconclusive. Only part of the assay is shown, chiefly results filed as inconclusive. A potency from a partial, single-point or poor curve is only a rough figure. Activity scores are not listed here.

structure,Potency (µM),curve
COc1ccccc1/C=C/CN1CCCC(CO)(Cc2cccc(Cl)c2)C1 (stereo unspecified),28.18,"inhibitor, single point"
COC(=O)c1sc(NC(=O)c2ccc(OC)cc2OC)nc1C,10,"inhibitor, partial curve, poor fit"
C=C(C)Cn1c(SCC(=O)N/N=C/c2c(O)ccc3ccccc23)nc2ccccc2c1=O,17.78,"inhibitor, partial curve, poor fit"
Cc1ccc(S(=O)(=O)c2nc(S(C)(=O)=O)sc2N2CCCCC2C)cc1 (stereo unspecified),25.12,"inhibitor, single point"
COc1cc(C#Cc2c(-c3cncn3C)n(C)c3ccc(-c4ccc(CN5CCOCC5)cc4)cc23)cc(OC)c1,2.512,"inhibitor, partial curve, poor fit"
CC1CCCCN1S(=O)(=O)c1ccc(C(=O)Nc2nnc(-c3ccncc3)o2)cc1 (stereo unspecified),17.78,"inhibitor, partial curve, poor fit"
Cc1nc(-c2cccc(NC(=O)c3cccc(S(=O)(=O)N4CCCC4)c3)c2)cs1,25.12,"inhibitor, single point"
Cc1ccc(OCCn2cc(/C=N/NC(=O)c3ccncc3)c3ccccc32)cc1,28.18,"inhibitor, partial curve, poor fit"
Cc1cccc(N=C2NN=C(c3c(C)[nH]c4ccccc34)CS2)c1,22.39,"inhibitor, single point"
Cc1ccc(C(=O)O)cc1N1C(=O)c2cccc3c([N+](=O)[O-])ccc(c23)C1=O,35.48,"inhibitor, single point"
O=C(CNC(=O)c1cccc(Br)c1)N/N=C/c1cc(Br)cc(Br)c1O,31.62,"inhibitor, single point"
Cn1c(COc2ccc(Cl)cc2)nnc1SCc1ncc(-c2ccccc2)o1,28.18,"inhibitor, single point"
CCc1noc(C)c1C(=O)N1CCSC1=Nc1cccc(Cl)c1C,14.13,"inhibitor, single point"
N#Cc1cc2c(=O)n3ccccc3nc2n(-c2ccccc2Cl)c1=O,35.48,"inhibitor, single point"
CC(=O)c1cccc(-c2cnc3c(NC=O)cc(-c4ccccc4F)cn23)c1,4.467,"inhibitor, single point"
Cc1c(N=C2N=C(NC(=O)c3ccc(F)cc3)c3ccccc32)c(=O)n(-c2ccccc2)n1C,3.162,"inhibitor, single point"
CCc1nc2ccc(C(=O)Nc3cccc(NS(C)(=O)=O)c3)cn2c1N(CC)Cc1cccc(Br)c1,28.18,"inhibitor, single point"
COC(=O)c1ccc(C(=O)Nc2cc(Cl)ccc2Cl)cc1NC(=O)c1ccc(N(C)C)cc1,3.548,"inhibitor, partial curve, poor fit"
CC(=O)Oc1ccc(C23c4ccccc4C2(OC(C)=O)c2cc(OC(C)=O)ccc23)cc1 (stereo unspecified),28.18,"inhibitor, partial curve, poor fit"
O=C(Nc1cccc(S(=O)(=O)C(F)F)c1)c1ccc(Cl)c(S(=O)(=O)N2CCOCC2)c1,28.18,"inhibitor, partial curve, poor fit"
Cc1ccc(NS(=O)(=O)c2ccc(NC(=O)C(C)Sc3ccc(Cl)cc3)cc2)c(C)c1 (stereo unspecified),25.12,"inhibitor, partial curve, poor fit"
O=C(Nc1ccc(NC(=O)c2cccs2)cc1)c1ccc2c(c1)OCO2,3.981,"inhibitor, partial curve"
OC[C@@H]1CN(Cc2ccc(-c3ccccc3)cc2)C[C@H](n2cnc3c(NC4CCC4)ncnc32)O1,14.13,"inhibitor, partial curve, poor fit"
Cc1cccc(Nc2c3c(nc4ccccc24)CCC3)c1,28.18,"inhibitor, partial curve, poor fit"
Cc1ccc(-c2ccc(/C=N/c3ncn[nH]3)o2)cc1Cl,1.778,"inhibitor, partial curve, poor fit"
COC(=O)N/N=C/c1cn(CC(C)COc2ccccc2)c2ccccc12 (stereo unspecified),22.39,"inhibitor, partial curve"
Cc1ccc(N(C)S(=O)(=O)c2cccc(C(=O)OCC(=O)c3c(N)n(C)c(=O)n(C)c3=O)c2)cc1,28.18,"inhibitor, single point"
COc1ccc2c(c1)CCCN2S(=O)(=O)c1ccc(Cl)cc1,17.78,"inhibitor, single point"
COc1ccc(CN(C)C(=O)c2cccc(NC(=O)CC3SC(N4CCCCC4)=NC3=O)c2)c(OC)c1 (stereo unspecified),17.78,"inhibitor, partial curve, poor fit"
Cc1nc2cc(-c3ccccc3)nn2c(C)c1CCC(=O)N1CCC2(CC1)OCCO2,3.981,"inhibitor, partial curve"